Results as given in publication PMC6790694, “Selective Modification of Ribosomally Synthesized and Post‐Translationally Modified Peptides (RiPPs) through Diels–Alder Cycloadditions on Dehydroalanine Residues” (Chemistry (Weinheim an Der Bergstrasse, Germany), 2019).
In brackets after ≈: the same amount, converted by molar mass. Where two headings read alike, the source gives them in different places.

Test system: S. aureus (ATCC29213)
Experiment: MIC assay, broth microdilution, S. aureus
Type: cell-based
Settings: Staphylococcus aureus
Protocol: Moreover, variations in activity towards both strains and between the different site‐ and endo/exo isomers remained limited to a factor of 4. The activity of 3 also very closely resembles that of thiostrepton, showing that even removing part of the tail region has little effect on its activity.
Biological Activity Assays
Preparation of antimicrobial agents
Thiostrepton and its variants were dissolved and diluted in DMSO to a concentration of 640 µg/ml, and stored at -20 °C. Before use, they were diluted 20 fold in Mueller Hinton Broth 2 (CAMHB; cation-adjusted, Sigma-Aldrich).
Dilution of the thiostrepton compounds in CAMHB was done in 50 % volume steps to prevent precipitation.
Vancomycin for the quality controls was dissolved in MQ to a concentration of 256 mg/ml and stored at -20 °C.
It was diluted in CAMHB to a final concentration of 256 µg/ml before use.
Strains and growth conditions
The MIC values of thiostrepton and its variants were determined for Staphylococcus aureus LMG 10147 […]
from glycerol stocks on LB (Formedium™) and GM17 (Difco™) plates respectively. […]
Well 11, lacking the test compound, functions as a growth control and well 12 as a sterility control. […] To ensure MIC data reliability, MIC values for vancomycin were determined for every series of tests performed, as described […]

CN[C@H](CC(C)C)C(=O)N[C@H]1C(=O)N[C@@H](CC(N)=O)C(=O)N[C@H]2C(=O)N[C@H]3C(=O)N[C@H](C(=O)N[C@H](C(=O)O)c4cc(O)cc(O)c4-c4cc3ccc4O)[C@H](O)c3ccc(c(Cl)c3)Oc3cc2cc(c3O[C@@H]2O[C@H](CO)[C@@H](O)[C@H](O)[C@H]2O[C@H]2C[C@](C)(N)[C@H](O)[C@H](C)O2)Oc2ccc(cc2Cl)[C@H]1O [Vancomycin]
MIC (ATCC 29213 / LMG10147, 20 h, read-out: MIC against S. aureus): 1 µg/mL (≈ 0.69 µM) | MIC (ATCC 29213 / LMG10147 / MSSA, 20 h, read-out: MIC against S. aureus (MSSA)): 1 µg/mL (≈ 0.69 µM)
